Test results from US9809586B2, “Inhibitors of collagen prolyl 4-hydroxylase” (WISCONSIN ALUMNI RESEARCH FOUNDATION, priority 2015, dated 2017).
Where a name gives a salt, the structure may show the parent alone. At least one compound was matched to its structure with a doubt left.

Tested on: IRPs
Assay: Electrophoretic mobility shift assay for IRE-binding by IRPs from treated cells
Format: cell-based, human
Conditions: treated MDA-MB-231 cells, 24 h, radiolabeled RNA ligand
Experimental: The resultant pellets (˜50 μL) were washed with PBS and then lysed using a protocol described previously.^41 Briefly, cell pellets were resuspended in 200 μL of cell lysis buffer, which was 20 mM Hepes-HCl buffer, pH 7.4, containing sodium pyrophosphate (10 mM), sodium fluoride (50 mM), β-glycerophosphate (50 mM), EDTA (5 mM), GTP (1 mM), sodium orthovanadate (1 mM), benzamidine hydrochloride (2 mM), Nonidet NP-40 (0.5% v/v), p-nitrophenyl p′-guanidinobenzoate-HCl (25 μg/mL), DTT (1 mM), leupeptin (40 μg/mL), pepstatin (4 μg/mL), SBTI (100 μg/mL), MG132 (10 μM), PMSF (200 μM), and BHT (5 μg/mL) by vortexing and lysed on ice by vortexing every few min. After 15 min, the lysates were centrifuged at 14,000 rpm and the supernatants aliquoted and stored at −80° C. until analysis by an electrophoretic mobility shift assay (EMSA).
EMSAs were performed and quantified essentially as described previously.^42 Briefly [^32P]-L-ferritin IRE (1 nM RNA, specific radioactivity ˜7,000 dpm/fmol) was incubated with lysate protein (2.5 μg as determined by the Bradford assay) in binding buffer for 10 min on ice. Heparin was added (to 0.5 mg/mL), and the reaction mixture was incubated for an additional 5 min on ice before separating bound and free RNA on a nondenaturing polyacrylamide gel at ambient temperature.

CC(=O)N(O)CCCCCNC(=O)CCC(=O)N(O)CCCCCNC(=O)CCC(=O)N(O)CCCCCN [DFO, Deferroxamine mesylate]
RNA binding by IRPs: significant increases
